Taken from: PubChem BioAssay AID504808 (Drosophila RNAi Screening Center, 2011)

Purpose: 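Fly genes required to hold E2F transcription in check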 (primary screen)
Cells: Drosophila S2 cells
Knock-down reagent: long dsRNA against Drosophila genes
Measured: 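Firefly luciferase driven by E2F sites, normalised to Renilla luciferase on the same minimal promoter, measured by plate reader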
Scale: E2F firefly: higher = more E2F reporter activity; Renilla normaliser: higher = more normaliser reporter signal
Hit rule: 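a knock-down counted as active when the firefly/Renilla E2F signal rose above 50%, a threshold chosen arbitrarily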
In all, the deposit lists about 21,000 reagents; below is an unselected part of those with a known target gene and a result. Of all reagents, 18 (0.084%) are marked active. 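Raw counts without plate normalisation, one of two replicates; the ratio scores behind the calls were not deposited.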 Reagents against one gene are numbered here. A plus sign joins genes that one reagent is predicted to hit. Not given: the amount of reagent, the time to read-out.

gene	reagent no.	E2F firefly, rep 1	Renilla normaliser, rep 1	outcome
baf (barrier to autointegration factor)	1	1.62e5	4980	inactive
TP53INP (Tumor protein p53 inducible nuclear protein)	1	83887	3651	inactive
CG42397	1	1.32e5	5108	inactive
Had2 (beta Hydroxy acid dehydrogenase 2)	1	3148	193	inactive
BORCS6 (BLOC-1 related complex subunit 6)	1	1.03e5	3852	inactive
Ras64B (Ras oncogene at 64B)	1	1.08e5	4229	inactive
CG4020	1	1.09e5	5869	inactive
CG7275	1	63477	3496	inactive
Slik (Sterile20-like kinase)	1	84643	3075	inactive
CG33777	1	1.27e5	4044	inactive
CG14572	1	1.49e5	7474	inactive
CG4230	1	87606	4141	inactive
CG12496	1	1.51e5	6755	inactive
CG31211	1	81474	3467	inactive
CG31211	2	1.59e5	6983	inactive
CG4424	1	60681	3543	inactive
Atg10 + CG18853 + CG12822	1	72631	2954	inactive
fs(1)K10 (female sterile (1) K10)	1	1882	944	inactive
Axs (Abnormal X segregation)	1	1.42e5	6710	inactive
Pxt (Peroxinectin-like)	1	1.25e5	9387	inactive
SerT (Serotonin transporter)	1	1.12e5	4312	inactive
nan (nanchung)	1	1.55e5	7085	inactive
CG42362 + CG42363	1	83640	3360	inactive
CG32037	1	1.21e5	6930	inactive

Entries above whose gene name starts with A or a:
gene	reagent no.	E2F firefly, rep 1	Renilla normaliser, rep 1	outcome
Atg10 + CG18853 + CG12822	1	72631	2954	inactive
Axs (Abnormal X segregation)	1	1.42e5	6710	inactive

Additional entries:
gene	reagent no.	E2F firefly, rep 1	Renilla normaliser, rep 1	outcome
mRpL17 (mitochondrial ribosomal protein L17)	1	1.05e5	4438	inactive
Pgcl (Pepsinogen C-like)	1	38636	3795	inactive
Pdhb (Pyruvate dehydrogenase E1 beta subunit)	1	1941	1028	inactive
Cap-G (Chromosome associated protein G)	1	1.09e5	4091	inactive
Cap-G (Chromosome associated protein G)	2	97371	4111	inactive
CG10737	1	64750	3130	inactive
CG3788	1	1.05e5	4870	inactive
CG14564	1	1.48e5	6882	inactive
CG7137	1	73519	3504	inactive
ZnT33D (Zinc transporter 33D)	1	96927	4030	inactive
CG2577	1	1.07e5	5154	inactive
Mes2 (Mesoderm-expressed 2)	1	91399	4154	inactive
Mes2 (Mesoderm-expressed 2)	2	63724	3737	inactive
Osi15 (Osiris 15)	1	1.35e5	6170	inactive
Rpt1 (Regulatory particle triple-A ATPase 1)	1	2218	225	inactive
CG14115	1	1.26e5	8503	inactive
CG14332	1	1.18e5	5887	inactive
CG9676	1	1.62e5	6845	inactive
CG13465	1	1.47e5	7200	inactive
maca	1	88223	5520	inactive
CG2162	1	83815	3302	inactive
NimC2 (Nimrod C2)	1	1.04e5	4277	inactive
CG40053 (retired record)	1	77670	2615	inactive
Yp1 (Yolk protein 1)	1	1.14e5	5973	inactive
Oatp26F (Organic anion transporting polypeptide 26F)	1	1.49e5	4715	inactive
Oatp26F (Organic anion transporting polypeptide 26F)	2	1.71e5	5947	inactive
Oatp26F (Organic anion transporting polypeptide 26F)	3	1.62e5	5299	inactive
amrt (amaretto)	1	1.97e5	6737	inactive
CG34217	1	1.27e5	6274	inactive
Usp5 (Ubiquitin specific protease 5)	1	1.12e5	4233	inactive
CG31093	1	1.08e5	5862	inactive
Urod (Uroporphyrinogen decarboxylase)	1	1.36e5	5110	inactive
Glo1 (Glyoxalase 1)	1	1.35e5	4586	inactive
